Screening data, single-dose tests

Mtb cholesterol medium: 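Growth of Mycobacterium tuberculosis over 4 days (cholesterol / DPPC medium with tyloxapol); the read-out is not stated. Compounds at 50 µM. The record gives no direction; compounds that gave an IC50 in retests scored well above the rest, so higher reads as more growth inhibition. Size under these conditions: about 69,000 compounds, about 370 of them at 50% or above in at least one test.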
Mtb glucose medium: 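Growth of Mycobacterium tuberculosis over 3 days (7H9 medium with glucose and tyloxapol); the read-out is not stated. Concentration: 50 µM. Direction is inferred from retests: higher values go with more growth inhibition. About 69,000 compounds were tested under these conditions; 1.1% (about 760) showed 50% or more at least once.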

Results are given as percent effect.
The record does not define 0% and 100%; most values in the screen are far below 50% and negative numbers occur (in some assays of this library far below -100).
The compounds are a random part of those screened.
Two or more numbers in one place are separate tests of the same structure; such repeats can differ widely.

| # | Compound | Mtb cholesterol medium | Mtb glucose medium |
|---|---|---|---|
| 1 | `O=c1cc(CN2CCCC2)nc2n1CCCN(Cc1ccoc1)C2` | 7.33% | 6.86% |
| 2 | `Cc1ccsc1-c1nccn1CCN1CCCOC1=O` | -2.919% | -18.75% |
| 3 | `[H][C@]12CCCC(=O)N[C@@]1(C)CCCCN2C(=O)c1cn2cc(C)ccc2n1` | -4.194% | -10.08% |
| 4 | `CC(C)(C)OC(=O)NC(C)(C)c1noc(CN2CCCCC2)n1` | -19.63% | 8.106% |
| 5 | `Cn1nccc1CCC(=O)N1CCC(c2cnccn2)CC1` | -11.94% | 9.666% |
| 6 | `Cc1cnn(CC2CCCN2C(=O)c2cccc(-n3cnnn3)c2)c1` (stereo unspecified) | 6.592% | -11.38% |
| 7 | `COCCN1CCc2c(CNC(=O)c3nccn3C)cncc2C1.Cl.Cl.Cl` | -29.91% | -22.45% |
| 8 | `Cc1c(C(=O)N2CCCOCC2)nnn1-c1cccc2cnccc12` | -9.009% | -10.18% |
| 9 | `COCC(=O)N1CCC2(CC1)COCCN2CCN(C)C.O=C(O)C(F)(F)F.O=C(O)C(F)(F)F` | 1.975% | -5.532% |
| 10 | `CCSc1ncccc1C(=O)NCc1ccc(N(C)C)cc1` | -32.07% | -55.75% |
| 11 | `CCN(CC1CCOCC1)C(=O)C1CC(=O)N(Cc2cccnc2)C1` (stereo unspecified) | -7.285% | -36.21% |
| 12 | `Cc1nc(CCC(N)=O)cc(C2CCCCN2S(C)(=O)=O)n1` (stereo unspecified) | -4.012% and 3.785% | 13.5% |
| 13 | `Cc1ccc(S(=O)(=O)c2ncccc2CN2CCCC2)cc1` | 6.278% | 20.1% |
| 14 | `Cc1nc(CN2CCCC(NCCOc3cccc(C#N)c3)C2)no1` (stereo unspecified) | -5.56% | -35.29% |
| 15 | `COc1ccc(N(c2ccc(C)cc2)c2ccc(C(=O)O)s2)cc1` | 16.24% | 22.88% |
| 16 | `Cc1cc(C(=O)Nc2ccc3c(c2)N(C)CCN(C)C3)on1` | -18.84% and 1.354% | -6.646% |
| 17 | `CC(NC(=O)NCCNc1cccc(F)c1C#N)c1nccs1` (stereo unspecified) | -10.57% | -0.4759% |
| 18 | `Cc1occc1CNC(=O)N(CCCO)C1CCc2ccccc21` (stereo unspecified) | 8.878% | 4.897% |
| 19 | `CSc1ccc(C2CC(=O)Nc3c2c(=O)[nH]n3C(C)C)cc1` (stereo unspecified) | -5.012% | -20.5% |
| 20 | `O=C(NC1CC1)c1nc(Cn2c(C(F)F)nc3ccccc32)no1` | 3.046% | -5.657% |
| 21 | `[H][C@@]12CCN(C(=O)c3ccccc3)[C@]1([H])C(=O)N(c1ccc(F)cc1)C(=O)N2` | 10.44% | -11.82% and -5.557% |
| 22 | `CCN(CC)C(=O)N1CCOCC1c1c(C)nn(C)c1C` (stereo unspecified) | -4.571% | -7.694% and -13.67% |
| 23 | `CC1c2ncc(CNC(=O)C3CC3)n2CCN1Cc1cnn(C)c1.O=C(O)C(F)(F)F.O=C(O)C(F)(F)F` (stereo unspecified) | -12.52% | -15.16% |
| 24 | `[H][C@]12CC[C@]([H])(CN(Cc3cscn3)C1)N(C(=O)OC)C2` | 3.02% | 3.932% |
| 25 | `O=c1ccc(-n2cccn2)nn1CCNS(=O)(=O)c1ccc(F)c(Cl)c1` | -4.362% | 2.059% and 20.45% |
| 26 | `CC(=O)c1c(O)n(C)c2ccc(C)cc12` | -16% | 15.46% and 9.513% |
| 27 | `CCS(=O)(=O)N1CCOC2(COCCN(C(C)=O)C2)C1` (stereo unspecified) | -19.05% | -3.966% and -47.26% |
| 28 | `COc1cccc(OCC2CCCN(C(=O)CCn3ccnc3)C2)c1` (stereo unspecified) | -11.65% | 10.07% |
| 29 | `O=C(O)C(F)(F)F.O=C(O)C(F)(F)F.O=C(O)C(F)(F)F.[H][C@@]12CCN(Cc3cnn(C)c3)[C@]1([H])CC[C@@H](C(=O)Nc1cccnc1C)O2` | -5.742% | -5.037% and -3.207% |
| 30 | `CCn1nc(CC(C)C)cc1C(=O)NCCn1cccc1` | -13.1% | 6.493% and 1.98% |
| 31 | `CCc1noc(C(C)N2CCNCC2)n1` (stereo unspecified) | 7.36% | -5.642% |
| 32 | `CN1C(=O)c2cccc(NC(=O)c3cccc(S(C)(=O)=O)c3)c2C1=O` | 0.5175% | -6.773% and 1.567% |
| 33 | `O=C(CCn1ccc2ccccc21)N1CCC(Nc2cccnc2)CC1` | -15.48% | -8.103% |
| 34 | `CN(Cc1cccc(F)c1)C(=O)CN1CCOC(Cn2cccn2)C1` (stereo unspecified) | -16.46% | 22.61% |
| 35 | `Fc1cnccc1CN1CCC2(CCNCC2)C1` | 2.765% and 1.302% | -13.07% and -1.718% |
| 36 | `Cn1cc(C(=O)NCc2ccc(OC3CCCCC3)nc2)ccc1=O` | -0.7724% | -8.345% |
| 37 | `Cc1noc(C)c1CN1C[C@@H](C(=O)O)[C@H](c2ccccc2)C1` | -7.592% | 0.4249% |
| 38 | `Cc1ccc(C(CNCc2cccnc2)N2CCOCC2)s1` (stereo unspecified) | -1.18% | -20.21% and 29.99% |
| 39 | `CC(C)OCCNC1(c2ccc(Cl)cc2)CCOCC1` | 4.472% | -10.91% |
| 40 | `COCc1cc(N2CCN(Cc3ccncc3)CC2)n2nccc2n1` | -0.5698% | 23.65% |
| 41 | `COc1cccc(C2CCCN2Cc2nnnn2C2CC2)c1` (stereo unspecified) | 14.68% | -1.985% |
| 42 | `CN(C)C(=O)CN1CCC2(COCc3cnc(N4CCOCC4)nc32)C1.O=C(O)C(F)(F)F` (stereo unspecified) | -3.068% and -8.66% | -1.831% |
| 43 | `Cn1cc(CN2CCC3(CCCN(C(=O)c4cscn4)C3)C2)cn1` (stereo unspecified) | 9.492% | -26.32% |
| 44 | `Cn1nc(-c2cccc(Cl)c2)c(Br)c1C(=O)O` | -9.671% | 23.99% |
| 45 | `CCOCCCn1c(NC(=O)c2cnn(C)c2)nc2ccccc21` | -9.642% | -4.918% |
| 46 | `Cc1nc(CN2CCC(CNC(=O)C3(C)CCCC3)CC2)oc1C` | 0.9428% | 2.271% and 7.965% |
| 47 | `CCS(=O)(=O)N1CCN(CC(F)(F)F)CC1` | 3.502% | -9.78% |
| 48 | `CC(O)c1cn(Cc2ccc(Cl)cc2)nn1` (stereo unspecified) | -6.175% | 6.515% and 9.899% |
| 49 | `CC(=O)NCc1noc2c1CN(Cc1cccs1)CC2` | -6.935% | 4.378% and -14.37% |
| 50 | `Cc1nc(C)n(CC2CN(Cc3cscn3)CCO2)n1` (stereo unspecified) | 1.088% | -0.3398% |
| 51 | `CCc1c(C)nn2c(O)cc(C3CCN(C(=O)c4ccn(C)n4)C3)nc12` (stereo unspecified) | -3.031% and -22.62% | -28.99% |
| 52 | `Cc1ccc2nc(C3CCCN(CC(C)C)C3)nc(O)c2c1` (stereo unspecified) | -5.767% | -6.702% |
| 53 | `Cn1ncc(CN2CCc3onc(-c4cccc(F)c4)c3C2)c1C1CC1` | 21.39% | 15.15% |
| 54 | `COC(=O)c1ccc(N2CCN(C(=O)c3cnc(C)cn3)C(C)C2)cc1` (stereo unspecified) | 5.725% | 1.139% and -36.71% |
| 55 | `CCc1cc(NCCC(F)(F)F)nc(N2CCOCC2)n1` | 4.713% | 19.65% |
| 56 | `CC(c1ccco1)N(C(=O)c1cc2c([nH]c1=O)CCCC2=O)C1CC1` (stereo unspecified) | -16.48% | -1.735% |
| 57 | `[H][C@]12CC[C@]([H])(CN(c3ncccc3C(N)=O)C1)N(CC=C(C)C)C2=O` | -0.8735% | 12.9% |
| 58 | `O=C(O)C(F)(F)F.O=C(O)C(F)(F)F.[H][C@@]12CCN(CCN(CC)CC)C[C@]1(C(=O)N1CCOCC1)CCO2` | -5.473% | 20.83% |
| 59 | `CC(C)Cn1ccnc1CNC(=O)NC(C)(C)c1nccs1` | -13.68% | -33.58% |
| 60 | `COCC(=O)NCCc1nc(N(C)C)ncc1-c1ccncc1` | -8.075% and 4.399% | -31.1% |
| 61 | `CCC(CC)C(=O)NCc1cn2cc(Br)ccc2n1` | -9.852% and 10.71% | 27.33% |
| 62 | `Cc1nc2ccccc2nc1NCc1nnc2n1CCC2` | -4.359% | -5.556% |
| 63 | `CCN(CC1CCCO1)S(=O)(=O)N1CCCCCC1` (stereo unspecified) | -2.881% | -0.6754% |
| 64 | `CC(C)Cn1ncc(C(=O)O)c1C1CC1` | -6.546% | 0.5681% |
| 65 | `Cc1nc(CCNc2ccc(-c3nc(C)c(C)c(=O)[nH]3)cn2)cs1` | -11.68% | 27.25% |
| 66 | `COc1ccccc1C1CNC(=O)c2nc(-c3cnn(C)c3)[nH]c2C1` (stereo unspecified) | 24.38% | 24.09% |
| 67 | `Cn1nc(C(=O)NC2(c3ccccc3)CCC2)ccc1=O` | 19.86% | 3.149% and 15.29% |
| 68 | `Cc1nc(C)n(CC(C)C(=O)N2CCC(CN3CCOCC3)CC2)n1` (stereo unspecified) | -15.49% | 11.87% |
| 69 | `CC(C)N1CCCn2nc(C(=O)NCc3ccccc3F)cc2C1` | 3.233% | 3.225% and -11.72% |
| 70 | `COCCCN1CC2(CCCN(c3ncc(Cl)cc3F)C2)CCC1=O` (stereo unspecified) | -11.98% | -26.67% |
| 71 | `N[C@@H]1c2ccccc2C2(CCN(c3ncccc3C(F)(F)F)CC2)[C@H]1O` | 2.858% | 25.15% |
| 72 | `COC1CCN(C(=O)NCC(N)=O)CC(=O)N(C)c2ccccc21` (stereo unspecified) | 1.766% | 13.99% |

7 of the entries, repeated:

Result for Cn1nccc1CCC(=O)N1CCC(c2cnccn2)CC1 was Mtb cholesterol medium: -11.94%; Mtb glucose medium: 9.666%.
Result for COc1cccc(C2CCCN2Cc2nnnn2C2CC2)c1 (stereo unspecified) was Mtb cholesterol medium: 14.68%; Mtb glucose medium: -1.985%.
Result for Cn1nc(-c2cccc(Cl)c2)c(Br)c1C(=O)O was Mtb cholesterol medium: -9.671%; Mtb glucose medium: 23.99%.
Result for COCC(=O)NCCc1nc(N(C)C)ncc1-c1ccncc1 was Mtb cholesterol medium: -8.075% and 4.399%; Mtb glucose medium: -31.1%.
Result for CCN(CC1CCOCC1)C(=O)C1CC(=O)N(Cc2cccnc2)C1 (stereo unspecified) was Mtb cholesterol medium: -7.285%; Mtb glucose medium: -36.21%.
Result for [H][C@]12CC[C@]([H])(CN(c3ncccc3C(N)=O)C1)N(CC=C(C)C)C2=O was Mtb cholesterol medium: -0.8735%; Mtb glucose medium: 12.9%.
Result for Cc1cc(C(=O)Nc2ccc3c(c2)N(C)CCN(C)C3)on1 was Mtb cholesterol medium: -18.84% and 1.354%; Mtb glucose medium: -6.646%.

Data taken from ChEMBL document CHEMBL3988442, “University of Dundee, Small-Polar-MMV Screening Library” (2021).